# The list shows only some results of the screen, not a fair sample: it gathers tests that were run many times, whatever their T/C, doses with no T/C, and many T/C values between a quarter and a half above the control. Other doses and runs of a compound stand elsewhere. T/C gives the treated animals as a percentage of the vehicle group. Some doses have a count of surviving animals in place of a T/C: the source files T/C as zero there, which appears to mark a toxic dose or a test without result, not a measured value. Some survivor counts are full or nearly so, which does not show that the dose was tolerated: survival well below the control is almost never listed, so the zero probably covers shortened survival too. Counts of survivors are from the toxicity check (mostly the fifth day) where no day follows; animals may have died later. Schedules are NCI's codes, taken here to give the interval after Q, in days (D) or hours (H), and the number of doses after X. Some schedule codes hold Z or #, which are not explained here. Some entries were tested several times; the results are listed from low to high. Some molecules as drawn cover several salts, stereoisomers or complexes of the source; a dose is that of the sample tested. Where survival is the endpoint, this PubChem deposit counts one and a half times the control or more as active, and values a quarter to a half above the control carry no call in these data; other NCI protocols may use other cut-offs. Some T/C values are followed by the survivors on the day toxicity was checked, most often the fifth; without a count, all were alive then.
# Test system: CD2F1 mice, L1210 leukemia sc, survival T/C
# Experiment: NCI In Vivo Anticancer Drug Screen. Data for tumor model L1210 Leukemia (subcutaneous) in CD2F1 (CDF1) mice
# Conditions: T/C endpoint: median survival time, higher T/C = longer survival
# Method in brief: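 Read-out: survival or tumor size. Value = treated (T) / vehicle control (C). Transplantable tumor in mice.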
# [1] = dose: 23.0 mg/kg/injection, schedule: Q01DX Z (sc), vehicle: methylcellulose (MC)
# [2] = dose: 39.0 mg/kg/injection, schedule: Q01DX Z (sc), vehicle: methylcellulose (MC)
# [3] = dose: 65.0 mg/kg/injection, schedule: Q01DX Z (sc), vehicle: methylcellulose (MC)
# [4] = dose: 108.0 mg/kg/injection, schedule: Q01DX Z (sc), vehicle: methylcellulose (MC)
# [5] = dose: 180.0 mg/kg/injection, schedule: Q01DX Z (sc), vehicle: methylcellulose (MC)
# [6] = dose: 300.0 mg/kg/injection, schedule: Q01DX Z (sc), vehicle: methylcellulose (MC)
# [7] = dose: 500.0 mg/kg/injection, schedule: Q01DX Z (sc), vehicle: methylcellulose (MC)
smiles,measurement,setting,value
O=C1NC(=O)C2C3C=CC(C12)C1C2C(=O)NC(=O)C2C31 (stereo unspecified),T/C,"dose: 23.3 mg/kg/injection, schedule: Q01DX009 (ip), vehicle: water",129 % of control
same,T/C,"dose: 24.5 mg/kg/injection, schedule: Q01DX009 (ip), vehicle: other",125 % of control
same,T/C,"dose: 25.0 mg/kg/injection, schedule: Q01DX005 (iv), vehicle: other",126 % of control
same,T/C,"dose: 35.0 mg/kg/injection, schedule: Q01DX005 (iv), vehicle: other",146 % of control
same,T/C,"dose: 35.0 mg/kg/injection, schedule: Q01DX009 (ip), vehicle: other",135 % of control
same,T/C,"dose: 50.0 mg/kg/injection, schedule: Q01DX005 (ip), vehicle: saline with Tween-80",145 % of control
same,survivor count,"dose: 100.0 mg/kg/injection, schedule: Q01DX005 (ip), vehicle: other",6 of 6
same,survivor count,"dose: 100.0 mg/kg/injection, schedule: Q01DX005 (iv), vehicle: other",3 of 6
same,survivor count,"dose: 138.9 mg/kg/injection, schedule: Q01DX009 (ip), vehicle: clinical formulation",0 of 6
same,T/C,"dose: 168.0 mg/kg/injection, schedule: Q01DX009 (oral), vehicle: other",146 % of control
same,survivor count,"dose: 200.0 mg/kg/injection, schedule: Q01DX005 (ip), vehicle: other",3 of 6
same,survivor count,"dose: 200.0 mg/kg/injection, schedule: Q01DX005 (ip), vehicle: saline with Tween-80",2 of 6
same,survivor count,"dose: 200.0 mg/kg/injection, schedule: Q01DX005 (sc), vehicle: other",2 of 6
same,survivor count,"dose: 400.0 mg/kg/injection, schedule: Q01DX005 (ip), vehicle: saline with Tween-80",0 of 6
same,T/C,"dose: 567.0 mg/kg/injection, schedule: Q01DX009 (oral), vehicle: other",144 % of control
COc1cccc2c1C(=O)c1c(O)c3c(c(O)c1C2=O)C[C@@](O)(C(=O)CO)C[C@@H]3OC1CC(OC(C)=O)C(OC(C)=O)C(C)O1 (stereo partly specified),T/C,"dose: 6.25 mg/kg/injection, schedule: Q01DX009 (ip), vehicle: distilled water + Tween-80",125 and 134 % of control
same,survivor count,"dose: 25.0 mg/kg/injection, schedule: Q01DX009 (ip), vehicle: distilled water + Tween-80",10 of 10
CS(=O)(=O)OCCCCOS(C)(=O)=O,survivor count,"dose: 5.0 mg/kg/injection, schedule: Q01DX Z (sc), vehicle: methylcellulose (MC)",2 of 10
same,survivor count,"dose: 8.4 mg/kg/injection, schedule: Q01DX Z (sc), vehicle: methylcellulose (MC)",0 of 10
same,survivor count,"dose: 14.0 mg/kg/injection, schedule: Q01DX Z (sc), vehicle: methylcellulose (MC)",0 of 10
same,survivor count,[1],1 of 10
same,survivor count,[2],1 of 10
same,survivor count,[3],1 of 10
same,survivor count,[4],2 of 10
same,survivor count,[5],0 of 10 and 4 of 10
same,survivor count,[6],1 of 10
same,survivor count,[7],0 of 10
O=c1[nH]cc(F)c(=O)[nH]1,T/C,"dose: 12.0 mg/kg/injection, schedule: Q01DX009 (ip), vehicle: saline",131 % of control
same,T/C,"dose: 12.0 mg/kg/injection, schedule: Q01DX009 (sc), vehicle: saline",126 % of control
same,T/C,"dose: 16.0 mg/kg/injection, schedule: Q01DX009 (ip), vehicle: saline",136 % of control
same,T/C,"dose: 20.0 mg/kg/injection, schedule: Q01DX009 (ip), vehicle: saline",141 % of control
same,T/C,"dose: 23.0 mg/kg/injection, schedule: Q01DX Z (sc), vehicle: saline",133 % of control
same,T/C,"dose: 24.0 mg/kg/injection, schedule: Q01DX009 (ip), vehicle: saline",139 % of control [9 of 10 alive]
same,T/C,"dose: 25.0 mg/kg/injection, schedule: Q01DX006 (ip), vehicle: saline",144 % of control
same,T/C,"dose: 25.0 mg/kg/injection, schedule: Q01DX009 (ip), vehicle: saline",143 % of control
same,T/C,"dose: 36.0 mg/kg/injection, schedule: Q01DX009 (ip), vehicle: saline",132 % of control
same,T/C,"dose: 36.0 mg/kg/injection, schedule: Q01DX009 (sc), vehicle: saline",143 % of control
same,T/C,"dose: 39.0 mg/kg/injection, schedule: Q01DX Z (sc), vehicle: saline",125 % of control
same,T/C,"dose: 50.0 mg/kg/injection, schedule: Q01DX006 (ip), vehicle: saline",133 % of control
same,T/C,"dose: 50.0 mg/kg/injection, schedule: Q02DX005 (ip), vehicle: saline",125 % of control
same,T/C,"dose: 80.0 mg/kg/injection, schedule: Q01DX009 (sc), vehicle: saline, evaluated on day 30",138 % of control
same,T/C,"dose: 80.0 mg/kg/injection, schedule: Q01DX009 (sc), vehicle: saline, evaluated on day 45",143 % of control
same,T/C,"dose: 100.0 mg/kg/injection, schedule: Q01DX006 (ip), vehicle: saline",133 % of control
same,T/C,"dose: 160.0 mg/kg/injection, schedule: Q01DX009 (sc), vehicle: saline, evaluated on day 30",130 % of control
same,T/C,"dose: 160.0 mg/kg/injection, schedule: Q01DX009 (sc), vehicle: saline, evaluated on day 45",134 % of control
same,T/C,"dose: 200.0 mg/kg/injection, schedule: Q01DX001 (ip), vehicle: saline",133 % of control
same,T/C,"dose: 200.0 mg/kg/injection, schedule: Q04DX003 (ip), vehicle: saline",133 % of control
same,T/C,"dose: 240.0 mg/kg/injection, schedule: Q01DX009 (sc), vehicle: saline",132 % of control
CC(=O)Oc1ccc[nH]c1=O,T/C,"dose: 400.0 mg/kg/injection, schedule: Q01DX009 (ip), vehicle: saline with Tween-80",137 % of control
FC(F)(F)c1nc2nc(Cl)c(Cl)nc2[nH]1,survivor count,"dose: 100.0 mg/kg/injection, schedule: Q04DX003 (ip), vehicle: saline with Tween-80",3 of 6
same,survivor count,"dose: 150.0 mg/kg/injection, schedule: Q04DX003 (ip), vehicle: saline with Tween-80",0 of 6
CC(C)CCNc1ncnc2c1cnn2C,survivor count,"dose: 300.0 mg/kg/injection, schedule: Q01DX Z (sc), vehicle: water",1 of 10
CN1CCN(CN2C(=O)C3C4C=CC(C3C2=O)C2C3C(=O)N(CN5CCN(C)CC5)C(=O)C3C42)CC1 (stereo unspecified),survivor count,"dose: 166.7 mg/kg/injection, schedule: Q01DX009 (ip), vehicle: water",0 of 6
same,survivor count,"dose: 191.2 mg/kg/injection, schedule: Q01DX009 (ip), vehicle: water",0 of 6
S=c1nc[nH]c2c1ncn2C1CCCC1,survivor count,[1],3 of 10
same,survivor count,[2],3 of 10
same,survivor count,[3],5 of 10
same,survivor count,[4],2 of 10
same,survivor count,[5],2 of 10
same,survivor count,[6],3 of 10
same,survivor count,[7],3 of 10
CC(=O)[C@H]1CC[C@H]2[C@@H]3C[C@H](C)C4=CC(=O)CC[C@]4(C)[C@H]3C(=O)C[C@]12C,survivor count,"dose: 20.0 mg/kg/injection, schedule: Q01DX009 (sc), vehicle: saline with Tween-80",4 of 10
same,survivor count,"dose: 40.0 mg/kg/injection, schedule: Q01DX009 (sc), vehicle: saline with Tween-80",4 of 10
same,survivor count,"dose: 80.0 mg/kg/injection, schedule: Q01DX009 (sc), vehicle: saline with Tween-80",1 of 10
same,survivor count,"dose: 160.0 mg/kg/injection, schedule: Q01DX009 (sc), vehicle: saline with Tween-80",5 of 10
same,survivor count,"dose: 320.0 mg/kg/injection, schedule: Q01DX009 (sc), vehicle: saline with Tween-80",3 of 10
same,survivor count,"dose: 640.0 mg/kg/injection, schedule: Q01DX009 (ip), vehicle: saline with Tween-80",6 of 10
same,survivor count,"dose: 640.0 mg/kg/injection, schedule: Q01DX009 (sc), vehicle: saline with Tween-80",4 of 10
O=c1n(CC2CO2)c(=O)n(CC2CO2)c(=O)n1CC1CO1 (stereo unspecified),T/C,"dose: 30.0 mg/kg/injection, schedule: Q01DX009 (ip), vehicle: saline",126 and 132 % of control
same,T/C,"dose: 40.0 mg/kg/injection, schedule: Q01DX009 (ip), vehicle: saline",143 % of control
same,T/C,"dose: 60.0 mg/kg/injection, schedule: Q04DX003 (ip), vehicle: saline",147 % of control [6 of 8 alive]
